Results published in US9341627B2, “Protein structural biomarkers to guide targeted chemotherapies” (priority 2009, dated 2016).
At least one structure is not confirmed: it was looked up by name or label, or the drawing left a doubt.

Tests used:
[1] = system: Eg5 E118 substitutions (E118D, E118L, E118N); conditions: all E118 variants, FIG. 2E
[2] = system: Eg5 E116, D130 and A133 mutants; conditions: all E116, D130 and A133 mutants, to varying degrees

CCOC(=O)C1=C(C)NC(=S)NC1c1cccc(O)c1 (centres unmarked) [monastrol]
allosteric inhibition of ATP hydrolysis relative to wildtype [1]: inhibited in equivalent measure to wildtype protein | sensitivity of mutants to inhibitor [2]: reduced sensitivity
